{"source": "patent US20230263808A1", "about": "(UNIVERSITY OF FLORIDA RESEARCH FOUNDATION, INCORPORATED, priority 2020, published 2023)", "key": {"[1]": {"system": "mitochondrial activity, pAKT, protein synthesis, and bone", "test": "Compound profiling platform, overall profile (FIG. 15)", "format": "cell-based", "settings": "10 uM", "experimental": "N=4-6 from two different experiments. […] D) Mitochondrial activity was measured in myoblasts using high content imaging with mitotracker dye after 24 treatment. New amino acid incorporation was measured with LICOR in cell western for puromycin (SunSet assay). […] N=3, mean+SEM. […] N=4, mean+SEM, 2-way ANOVA.\nTo avoid such effects on myogenesis, we switched myoblasts to differentiation media, and then on day 4, added 10 μM cytarabine, a chemotherapy agent that kills dividing cells, and then adding GCs on day 6 or 7 and completing assays in day 8 (FIG. 8).\nPhysiologically, the effects of GCs on protein balance and Glut4 translocation vary in vivo depending upon the stressor. For example, GCs mediate atrophy in response to fasting but not exercise. […] To assess protein degradation, we measured chymotrypsin-like proteasomal activity (FIG. 2, A). The activating phosphorylation of AKT at Thr308 (pAKT) was measured using a LI-COR In-Cell Western assay (FIG. 2, B and C). The rate-limiting step in insulin-mediated glucose uptake is the translocation of the glucose transporter, Glut4, to the surface membrane, which we also measured by In-Cell Western without permeabilizing the myotubes (FIG. 2, D). […]"}, "[2]": {"system": "IL-1β-induced IL-6 secretion by A549 lung cells", "test": "IL-1β-induced IL-6 secretion by A549 lung cells (AlphaLISA)", "format": "cell-based", "settings": "10 μM", "source_text": "A) Correlation of correlation (COC) plots where each point represents the Pearson correlation coefficient, r, between a distinct gene expression or GR-peptide interaction assay with assays indicated on the x and y axes. B) The effects of all tested compounds on IL-1β-induced secretion of IL-6 (y axes) and GC-regulated phenotypes indicated on the x axes. C) The effects of all tested compounds on IL-1β-induced secretion of IL-6 (y axis) and bone mineralization (x axis). D) IL-1β-induced IL-6 production by A549 cells treated with 10 μM of the indicated compounds was compared by AlphaLISA. E-H) Myoblasts were assayed as described in FIG. 8. I) Representative myoblasts imaged during the mitochondrial potential assay. J) Plasma TNFα levels of C57BL/6 male mice treated pretreated with the indicated ligands. K) Changes in lean mass of mice in panel J were determined by whole-body NMR after an additional 18 h LPS treatment. Data shown are mean+SEM.\nIn order to understand whether effects on skeletal muscle could be dissociated from anti-inflammatory effects of the ligands, we profiled the compounds for suppression of IL1β-induced IL-6 secretion by A549 lung cells. Examining the correlations between assays can be used to identify dissociated assays that selectively correlate with a given phenotype, predicting discovery of dissociated ligands. […] We call this a correlation of correlations (COC) plot. […]"}, "[3]": {"system": "primary human osteoblasts", "test": "Osteoblast mineralization (Alizarin Red S) from mesenchymal stem cells", "format": "cell-based", "experimental": "(§1) A) Each dot represents the effects of a compound in the indicated assays at 10 uM. N=4-6 from two different experiments. […] C) SR11466 is efficacious at inhibiting IL-6 secretion from A549 cells. C-E). […] D) Mitochondrial activity was measured in myoblasts using high content imaging with mitotracker dye after 24 treatment. New amino acid incorporation was measured with LICOR in cell western for puromycin (SunSet assay). E) top, MMTV-luciferase reporter data. N=3, mean+SEM. Bottom, Mineralization of primary human OBs was assayed after two weeks of differentiation from MSC and two weeks of mineralization. N=4, mean+SEM, 2-way ANOVA.\nAs a further test for dissociation, the compounds were profiled in primary human osteoblasts for effects on osteogenesis during 4 weeks of differentiation from mesenchymal stem cells. […] Effect of glucocorticoid receptor modulators on osteogenic differentiation of MSCs was quantified using Alizarin Red S (Sigma-Aldrich, A5533) staining. […] Monolayers were then rinsed 3×with deionized water until clear, stain was then extracted with 10% (w/v) cetylpyridinium chloride (Sigma-Aldrich, C0732) in 10 mM sodium phosphate (Sigma, S5011 and S5136), pH 7.0 for 15 min at room temperature and the amount of extracted dye quantified spectroscopically at 562 nm. Spectroscopic analysis performed using a synergy™ NEO HTS Multi-Mode Microplate Reader (BioTek Instruments, Inc.)."}, "C2C12 myoblasts": {"system": "C2C12 myoblasts", "test": "Mitochondrial potential, high-content imaging with MitoTracker dye", "format": "cell-based, mouse", "experimental": "A) C2C12 myotubes were assayed for chymotrypsin-like proteasomal activity. […] C) Quantitation of the ICW in panel B. D) ICW for surface expression of Glut4 on L6 myotubes. E) ICW for insulin-induced incorporation of puromycin into C2C12 myotube surface proteins. F-G) High-content imaging and analysis of C2C12 myoblasts stained with a Mitotracker dye. H) Assay reproducibility from screening 22 compounds on two separate occasions. The Pearson correlation coefficient, r, and its associated p-value is indicated.\nas §1, with “Bottom, Mineralization of primary human OBs was assayed after two weeks of differentiation from MSC and two weeks of mineralization. N=4, mean+SEM, 2-way ANOVA.” left out\nPhysiologically, the effects of GCs on protein balance and Glut4 translocation vary in vivo depending upon the stressor. […] To assess protein degradation, we measured chymotrypsin-like proteasomal activity (FIG. 2, A). The activating phosphorylation of AKT at Thr308 (pAKT) was measured using a LI-COR In-Cell Western assay (FIG. 2, B and C). […]"}}, "note": "At least one structure is not confirmed: it was looked up by name or label, or the drawing left a doubt.", "data": [{"smiles": "CC#C[C@]1(O)CC[C@H]2[C@@H]3CCC4=CC(=O)CCC4=C3[C@@H](c3ccc(N(C)C)cc3)C[C@@]21C", "note": "[RU486, reference compound]", "values": [{"measurement": "overall profile in compound profiling (anabolic effects, agonism)", "setting": "[1]", "value": "reversed most of the effects of dex"}, {"measurement": "inhibition of IL-1β-induced IL-6 secretion (anti-inflammatory)", "setting": "[2]", "value": "partially inhibited"}, {"measurement": "effect on mineralization (bone)", "setting": "[3]", "value": "still inhibited"}, {"measurement": "effect on mitochondrial activity / potential", "setting": "C2C12 myoblasts", "value": "still inhibited"}]}]}
